Test results taken from publication PMC7819943, “Rice protein-binding microarrays: a tool to detect cis-acting elements near promoter regions in rice”.
Some of the results follow.

Amino acid sequences for entries named in this document (tags omitted).
UniProt Q0JBA9, entry or part of it: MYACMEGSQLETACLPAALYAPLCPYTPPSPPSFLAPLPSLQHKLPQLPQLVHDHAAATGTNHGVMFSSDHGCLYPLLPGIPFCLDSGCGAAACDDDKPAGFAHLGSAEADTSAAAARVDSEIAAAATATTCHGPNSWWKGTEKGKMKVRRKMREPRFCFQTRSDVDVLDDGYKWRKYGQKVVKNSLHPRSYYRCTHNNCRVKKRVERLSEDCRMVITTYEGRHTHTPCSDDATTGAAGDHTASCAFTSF

What follows are sequences tested against OsWRKY34 (Oryza sativa, UniProt Q0JBA9 1-250) (assay: protein-binding microarray (RPBM); PBS, 2% BSA, 51.3 ng/ul salmon testes DNA, 50 uM zinc acetate, 200 nM TF, 25 C, 1 h; high values mean tight binding). Conditions: protein: recombinant; tags: N-terminal polyhistidine and DsRed monomer fusion (pET32a); label: CyDye5-dUTP incorporated in the synthesized complementary strand; 3' TTTTT single-stranded linker to array surface; dsDNA, one strand shown.
Outline: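 In PBS with 2% BSA, salmon testes DNA and 50 µM zinc acetate, 200 nM protein was incubated on a custom Agilent array at 25 °C for 1 h and then washed off. The array had been made double-stranded by primer extension with Cy5-dUTP and blocked with 2% BSA. The proteins were transcription factors fused N-terminally to polyhistidine and DsRed, expressed in E. coli BL21-CodonPlus and purified on Ni–NTA. The binding signal is per-feature fluorescence intensity (arbitrary units) from an Axon 4000B scanner.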

| Sequence | binding signal |
| --- | --- |
| TGAAGCCCTCTATATGTACCCTTTTCGAACCTGTTCATCACGGAGTCACCTAGTGCAG | 8030 fluorescence intensity (a.u.) |
| AGGGTTATTTTAATCATATTATTGTTAGTTTTTTTTGTATCGGAGTCACCTAGTGCAG | 9690 fluorescence intensity (a.u.) |
| CTCCACCAACCTTGCCACCATTCTGTCCAGTCAAAACTTGCGGAGTCACCTAGTGCAG | 9510 fluorescence intensity (a.u.) |
| CCTTCCGCCGCGCCTTCGCCACCTCGTTCTGCGCCTTCTCCGGAGTCACCTAGTGCAG | 10200 fluorescence intensity (a.u.) |
| CTCCCTCGCGCGCCGGTCCTCCATCGCCCTCGCCGCCCCGCGGAGTCACCTAGTGCAG | 8500 fluorescence intensity (a.u.) |
| GTTGACGTACTGACGTGTTTTTATCTATTTGTCCCTCAACCGGAGTCACCTAGTGCAG | 9410 fluorescence intensity (a.u.) |
| TTTCCGGCATCAGTCTTTGTTATAGTATGTTTCAGCTGTCCGGAGTCACCTAGTGCAG | 10500 fluorescence intensity (a.u.) |
| CTCCACCACCTCTACCCTACGCCGCTGCTGCTCTTTCGCTCGGAGTCACCTAGTGCAG | 13300 fluorescence intensity (a.u.) |
| ATGTATGAAGTTCCAGTATATTCTCTCTTCATCTAGATTTCGGAGTCACCTAGTGCAG | 8040 fluorescence intensity (a.u.) |
| ACCTATTGCAACACATATATTTTCCCTAGTTTATATTTATCGGAGTCACCTAGTGCAG | 8620 fluorescence intensity (a.u.) |
| ACCGTACGTGTTATTTCTCTCAACCCGGCCGGCCACCTTTCGGAGTCACCTAGTGCAG | 9360 fluorescence intensity (a.u.) |
| TTCCATGTAAGCTGTGCAATTAGTTTTTTATTTTATCTATCGGAGTCACCTAGTGCAG | 11100 fluorescence intensity (a.u.) |
| TTCTCTCTCTCTGCTCTGCCTCTGTCTTGTTTTGCTTTGCCGGAGTCACCTAGTGCAG | 10300 fluorescence intensity (a.u.) |
| GTTTGAGCGGTCTTTCTCTTCAGAATTTGACAATTGATCACGGAGTCACCTAGTGCAG | 8120 fluorescence intensity (a.u.) |
| ACCAGCTTCCATGTTAGTACTACTACTAGCCATCTGATGACGGAGTCACCTAGTGCAG | 8340 fluorescence intensity (a.u.) |
| ATCTTCACTGGCCTTTACTTTGTGGCGGCTCCAAATTCCGCGGAGTCACCTAGTGCAG | 10800 fluorescence intensity (a.u.) |
| TCAAACCGCGCCTCACTGCCACCTTCGTTTGCGCACCATGCGGAGTCACCTAGTGCAG | 9710 fluorescence intensity (a.u.) |
| AATTTGCAGTATATTCCAGCTCTTATTCTGATATGTCCTTCGGAGTCACCTAGTGCAG | 12500 fluorescence intensity (a.u.) |
| GTTCATCATGCTTGTGCAAACATTAGTTTATCAATGTCCACGGAGTCACCTAGTGCAG | 9080 fluorescence intensity (a.u.) |
| TCTCGGCCGGTATGGGTGGCGGGGTGTGTTGAGGAGGTGTCGGAGTCACCTAGTGCAG | 8850 fluorescence intensity (a.u.) |
| GGTCTTGGCTGGTGGTCAGTTGGTTGATGTTGCATGTTCACGGAGTCACCTAGTGCAG | 13700 fluorescence intensity (a.u.) |
| TTCAGCAGCTCCATTTGTTACAACATCCTGTCAAGAATGCCGGAGTCACCTAGTGCAG | 8280 fluorescence intensity (a.u.) |
| ATTTGTTTTTTTAATGGTACACAGAGTACAATGTATTTTGCGGAGTCACCTAGTGCAG | 8050 fluorescence intensity (a.u.) |
| CGCCGCCACCAGCCAATCCGCTGCCGCCACCTCGTCACCGCGGAGTCACCTAGTGCAG | 9300 fluorescence intensity (a.u.) |
| TTTTTCCATCTCGTTTGCTGTAACTAAGACCCTCCACGCCCGGAGTCACCTAGTGCAG | 8620 fluorescence intensity (a.u.) |
| GGGGAGTTTTGTTGGAAGGTTAAAATTATAAGAGTCAAAACGGAGTCACCTAGTGCAG | 9420 fluorescence intensity (a.u.) |
| CTTGTCCGTATACATTGTTACACACACCCGTTTTGTTCTTCGGAGTCACCTAGTGCAG | 11900 fluorescence intensity (a.u.) |

| Sequence | binding signal |
| --- | --- |
| ATCGCTAACCTTTATGTCATGTCTAGCTAGTGCAATTAGACGGAGTCACCTAGTGCAG | 10300 fluorescence intensity (a.u.) |
| ATCATCACGACATCTCACTCAATTTCTAGTGATATTTTTTCGGAGTCACCTAGTGCAG | 8340 fluorescence intensity (a.u.) |
| CCTTGTGTGCACTTCCCCGCGTAACCGCAGCCACCGTCACCGGAGTCACCTAGTGCAG | 8680 fluorescence intensity (a.u.) |
| CCGCATGCTCTGCTCTCTCGCTCGCTCGCCGCCGCCTCCTCGGAGTCACCTAGTGCAG | 8880 fluorescence intensity (a.u.) |
| ATGACCGGCCACCACCATTGCCACCGGCCGATCTCCTCTTCGGAGTCACCTAGTGCAG | 9360 fluorescence intensity (a.u.) |
| GGTCTTTGTTTGGGCAGAACGGTTGTATGTGGGCCGGGCCCGGAGTCACCTAGTGCAG | 8270 fluorescence intensity (a.u.) |
| GTCAGTGGTTCATCTGGACCAAAACCCAACGAGCTAGTCTCGGAGTCACCTAGTGCAG | 8520 fluorescence intensity (a.u.) |
| CTCCTCTTGCTCTATCGATCACACATTCTCTCTCTCACTCCGGAGTCACCTAGTGCAG | 14100 fluorescence intensity (a.u.) |
| CATTACTTTTTTTTAAACATTTTATTTCCATTTTTAATTTCGGAGTCACCTAGTGCAG | 8840 fluorescence intensity (a.u.) |
| TCTCGGCGCGGTAACCCTCGCGCCCCACCACATATTTTCACGGAGTCACCTAGTGCAG | 8060 fluorescence intensity (a.u.) |
| TGTCTGGTCAACGCACAATTTCGGTCAGTAACTCCCTGGCCGGAGTCACCTAGTGCAG | 9770 fluorescence intensity (a.u.) |
| CTCTCTACACTGTCACTCTCACTGCACTTCCTAGCTTAGCCGGAGTCACCTAGTGCAG | 10400 fluorescence intensity (a.u.) |
| CACACCAGCTTTATCTTCCACTTCTACAGCACTGCATCAACGGAGTCACCTAGTGCAG | 8910 fluorescence intensity (a.u.) |
| CATACGTTGAAACAACCACTACTACTACCACTACGCCTAACGGAGTCACCTAGTGCAG | 8600 fluorescence intensity (a.u.) |
| GCAGCCATTTCCAGAGCCGGACACTCCTGTGCCGCGTTTTCGGAGTCACCTAGTGCAG | 8770 fluorescence intensity (a.u.) |
| TATACTTCGTACTGACCACCAGCTTCGTGCGCATGCATGACGGAGTCACCTAGTGCAG | 8840 fluorescence intensity (a.u.) |
| TATTTGACATTTAATTGTTGACATTATATGAACTGATTGTCGGAGTCACCTAGTGCAG | 8120 fluorescence intensity (a.u.) |
| TTGGGCAGATCCTTCGTCTGTATCGTATTGTGCTTTTGATCGGAGTCACCTAGTGCAG | 8470 fluorescence intensity (a.u.) |
| GTGCGATTTCTCCCCGTTTCTTGGCCTCGCCACTCCGCCACGGAGTCACCTAGTGCAG | 8070 fluorescence intensity (a.u.) |
| AAGGTGGTACTGTACGCTCCATAGCTTTTCCTTCCGGTTTCGGAGTCACCTAGTGCAG | 9220 fluorescence intensity (a.u.) |
| ACTACCTCTGTTTCTTATTATAAGTCGTTTTGACCTATTTCGGAGTCACCTAGTGCAG | 8600 fluorescence intensity (a.u.) |
| GGGGTCACAGCCAAAAGCCCAAAACTCTCATGCCCGCGCCCGGAGTCACCTAGTGCAG | 8070 fluorescence intensity (a.u.) |
| GGCAGAGTAATTTTCACACACATTCCTCCACCGCGCCGTCCGGAGTCACCTAGTGCAG | 8790 fluorescence intensity (a.u.) |
| TGATCGGTATCATGTGTCAGGTATGTGCTTTGATGATTCACGGAGTCACCTAGTGCAG | 8840 fluorescence intensity (a.u.) |
| ATTTGGAGAACTTGCTGGGAGATGATTGGTTTTATTTGGACGGAGTCACCTAGTGCAG | 8780 fluorescence intensity (a.u.) |
| ACCTTACACAAGCATTTGGTCTGCTTTACGGCGGATTGCACGGAGTCACCTAGTGCAG | 9530 fluorescence intensity (a.u.) |
| CACGGCCGTTTCCGTACGCCTCTGCCTCTCACCGCGCCCGCGGAGTCACCTAGTGCAG | 10400 fluorescence intensity (a.u.) |

A different layout for part of the listing above:
Sequence | binding signal
CCGCATGCTCTGCTCTCTCGCTCGCTCGCCGCCGCCTCCTCGGAGTCACCTAGTGCAG | 8880 fluorescence intensity (a.u.)
ATGACCGGCCACCACCATTGCCACCGGCCGATCTCCTCTTCGGAGTCACCTAGTGCAG | 9360 fluorescence intensity (a.u.)
GGTCTTTGTTTGGGCAGAACGGTTGTATGTGGGCCGGGCCCGGAGTCACCTAGTGCAG | 8270 fluorescence intensity (a.u.)
